Results published in publication PMC6895612.
Results are given in words; binding and its absence hold for the method and conditions named. Binding seen in cells or lysates may run through a third protein. Some results given as binding are weak or reduced against the parent protein; the word gives no strength. For some of these results: Where a sequence is shown, tags or fusion partners need not be part of it. Each block holds one substance with its values, some of them ahead of it.

Chains of the proteins cited; added tags and fusions are not shown.
UniProt Q01844: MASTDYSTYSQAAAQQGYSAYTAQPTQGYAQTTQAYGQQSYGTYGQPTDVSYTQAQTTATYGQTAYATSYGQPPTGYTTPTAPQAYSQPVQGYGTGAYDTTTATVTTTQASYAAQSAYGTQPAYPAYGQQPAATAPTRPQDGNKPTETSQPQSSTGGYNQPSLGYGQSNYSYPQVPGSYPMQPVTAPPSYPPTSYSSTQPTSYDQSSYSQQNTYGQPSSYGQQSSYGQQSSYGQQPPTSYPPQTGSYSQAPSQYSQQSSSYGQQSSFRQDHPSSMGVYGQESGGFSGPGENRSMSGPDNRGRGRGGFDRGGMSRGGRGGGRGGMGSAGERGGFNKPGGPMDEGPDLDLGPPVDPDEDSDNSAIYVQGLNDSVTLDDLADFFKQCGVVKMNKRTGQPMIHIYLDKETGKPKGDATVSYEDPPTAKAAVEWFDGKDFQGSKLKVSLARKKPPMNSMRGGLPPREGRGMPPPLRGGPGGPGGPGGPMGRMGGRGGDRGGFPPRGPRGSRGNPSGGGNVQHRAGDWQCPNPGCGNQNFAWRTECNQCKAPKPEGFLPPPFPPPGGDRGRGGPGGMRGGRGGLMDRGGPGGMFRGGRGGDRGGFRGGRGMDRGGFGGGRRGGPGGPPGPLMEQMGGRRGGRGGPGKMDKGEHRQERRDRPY

What was measured:
[1] = target: T1, MYC-associated zinc finger protein (human (endogenous in IMR32 and SH-SY5Y)) (UniProt P56270); test: co-IP; endogenous proteins of IMR32 and SH-SY5Y cells; antibodies to EWSR1 (sc-28327) or MAZ (ab85725), Western blot; also in cells stably transfected with circ-CUX1 (interaction increased) or sh-circ-CUX1 #1 (interaction decreased)
T1 sequence: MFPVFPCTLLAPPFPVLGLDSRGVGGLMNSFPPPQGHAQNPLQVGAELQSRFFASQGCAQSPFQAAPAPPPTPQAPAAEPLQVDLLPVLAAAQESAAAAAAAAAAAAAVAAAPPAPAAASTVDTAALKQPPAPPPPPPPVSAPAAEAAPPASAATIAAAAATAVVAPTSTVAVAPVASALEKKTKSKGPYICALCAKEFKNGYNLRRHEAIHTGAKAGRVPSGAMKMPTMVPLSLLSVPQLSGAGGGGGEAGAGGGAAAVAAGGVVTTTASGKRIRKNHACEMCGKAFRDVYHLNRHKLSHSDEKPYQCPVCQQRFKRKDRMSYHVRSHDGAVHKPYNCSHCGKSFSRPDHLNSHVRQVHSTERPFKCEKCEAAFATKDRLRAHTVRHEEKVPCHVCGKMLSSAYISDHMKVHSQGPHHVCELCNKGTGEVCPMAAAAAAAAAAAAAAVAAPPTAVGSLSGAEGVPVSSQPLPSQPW

Flag-tagged MAZ (human) = target: T2, Flag-tagged MAZ (human) (UniProt P56270); test: co-IP; Flag-tagged MAZ and its truncations expressed in cells; Flag antibody (ab18230), Western blot; source of EWSR1 not stated
T2 sequence: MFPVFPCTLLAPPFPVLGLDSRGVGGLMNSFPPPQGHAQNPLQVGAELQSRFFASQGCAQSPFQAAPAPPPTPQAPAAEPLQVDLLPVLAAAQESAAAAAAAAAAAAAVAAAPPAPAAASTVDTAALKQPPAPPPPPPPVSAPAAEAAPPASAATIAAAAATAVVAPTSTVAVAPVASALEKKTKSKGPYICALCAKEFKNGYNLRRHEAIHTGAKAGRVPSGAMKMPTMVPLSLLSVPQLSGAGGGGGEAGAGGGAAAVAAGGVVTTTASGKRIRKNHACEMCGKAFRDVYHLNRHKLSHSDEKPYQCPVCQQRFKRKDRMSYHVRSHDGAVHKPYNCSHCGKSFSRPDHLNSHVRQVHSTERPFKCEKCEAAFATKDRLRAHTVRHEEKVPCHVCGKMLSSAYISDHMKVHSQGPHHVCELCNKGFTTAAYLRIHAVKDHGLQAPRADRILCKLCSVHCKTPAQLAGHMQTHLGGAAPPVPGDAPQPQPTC

[2] = target: T3, MAZ in BiFC vector pBiFC-VC155 (human) (UniProt P56270); test: split reporter; BiFC: EWSR1 and MAZ cDNAs in pBiFC-VN173 and pBiFC-VC155, co-transfected into IMR32 and SH-SY5Y cells for 24 h, confocal microscopy; cells stably transfected with circ-CUX1 or sh-circ-CUX1
T3 sequence: T2 sequence

[3] = target: T1, MYC-associated zinc finger protein (human (endogenous in IMR32 and SH-SY5Y)); test: co-IP; Myc-tagged EWSR1 and its truncations expressed in cells; Myc antibody (ab9106), Western blot; source of MAZ not stated

binding [1]: binds
binding (Flag-tagged MAZ (human)): binds
Substance: EWS RNA-binding protein 1 (from UniProt Q01844 1-656)

binding [2]: binds
Substance: EWSR1 in BiFC vector pBiFC-VN173 (from UniProt Q01844 1-656)

binding [3]: binds
Substance: Myc-tagged EWSR1 (from UniProt Q01844 1-656)
